Where “and” joins values, the source holds several entries; their conditions need not be identical. Identical values can stand only once. The source gives many values for each of these; only a part stands here.
System: SW48 xenografts
Experiment: SW48 xenograft efficacy, compound 3 p.o. twice daily
Assay type: in vivo
Conditions: single mouse, listed as WRNi #4
Experimental: All animal studies were conducted in accordance with ethics and procedures covered by permit BS-2275 and BS-1975 issued by the Kantonales Veterinäramt Basel-Stadt and in strict adherence to guidelines of the Eidgenössisches Tierschutzgesetz and the Eidgenössische Tierschutzverordnung, Switzerland. All animal studies were approved by the internal ethics committee. All animals had access to food and water ad libitum and were identified with transponders. They were housed in a specific-pathogen-free facility in IVC racks under a 12 h–12 h light–dark cycle. To establish cell-line-derived xenograft models, 6–7-week-old female athymic nude (Crl:NU(NCr)-Foxn1^nu) or SCID-BEIGE (CB17.Cg-PrkdcscidLystbg-J/Crl) mice from Charles River were engrafted subcutaneously with 5 million tumour cells in HBSS (H6648, Sigma-Aldrich). For SNU-407, Lovo, IM95, RL95.2, Ishikawa and IGROV-1, the cells were concentrated in 50% Matrigel (354234, Corning). Patient-derived xenografts were induced and expanded by transplantation as previously described. […] For the efficacy experiment, mice were randomized into groups (n = 5–6) for a mean tumour size of 100–150 mm^3. […] Blood samples were collected on day 7 and 91. […] Tumour responses are reported with the measures of tumour volumes from the treatment start. […] Animals were randomized (n = 3) and tumour samples were collected at 0, 1, 4, 8 and 24 h on the first day and then collected 4 h after the last treatment on day 3, 8, 10, 14 (including a 24 h timepoint), 17 and 21. Tumours were excised, weighed, either frozen in liquid nitrogen and cryogenic dry pulverized with the CryoPrep system (model CP-02, Covaris) or processed to FFPE after fixation. […] On day 12, blood samples were collected for PK analysis. On the last day (3 h after the last treatment), tumours were excised, weighed, frozen in liquid nitrogen and cryogenic dry pulverized for PD analysis.

CCc1c(N2CCN(C(=O)c3ncccc3O)CC2)c(=O)n2nc(C3=CCOCC3)nc2n1CC(=O)Nc1ccc(C(F)(F)F)cc1C [compound 3]
Tumour volume (TVol) (15mg/kg BID, day 6): 222.23 mm3 and 432.34 mm3 and 293.76 mm3 and 546.60 mm3 and 369.99 mm3 | Tumour volume (TVol) (15mg/kg BID, day 8): 464.47 mm3 and 551.93 mm3 and 284.89 mm3 and 687.99 mm3 and 362.62 mm3 and 641.62 mm3 and 391.47 mm3 | Tumour volume (TVol) (50mg/kg BID, day 8): 234.24 mm3 and 504.11 mm3 and 198.44 mm3 and 326.79 mm3 and 274.60 mm3 and 319.42 mm3 and 471.32 mm3 | Tumour volume (TVol) (150mg/kg BID, day 8): 189.74 mm3 and 270.64 mm3 and 96.82 mm3 and 179.84 mm3 and 204.54 mm3 and 165.00 mm3 and 270.63 mm3

— PMC11078746 (Nature, 2024)
